{"source": "patent US10828281B2", "about": "“Non-hydrophobic compounds for use in treating metastasis and/or cartilage defect” (Friedrich-Alexander-Universität Erlangen-Nürnberg, priority 2015, dated 2020)", "key": {"MIA-MIA interaction": {"molecular_target": "T1, MIA-MIA interaction (Homo sapiens, UniProt Q16674)", "T1 sequence (Q16674 25-131)": "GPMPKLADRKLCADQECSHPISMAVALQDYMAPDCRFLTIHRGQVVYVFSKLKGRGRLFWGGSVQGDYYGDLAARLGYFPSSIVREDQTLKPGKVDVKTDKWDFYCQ", "assay": "heterogeneous transition metal-based fluorescence polarization (HTFP) assay of MIA dimerization", "assay_type": "binding", "protocol": "The dimerization of the MIA protein is for example measured by a heterogeneous transition metal-based fluorescence polarization (HTFP) assay, wherein the ratio P/P0 is measured. P is the fluorescence polarization signal of a MIA protein labeled with a transition metal complex in the presence of substrate bound MIA-protein and of a compound to be tested. P0 is the fluorescence polarization signal of free MIA-protein labeled with said luminescent transition metal complex in the absence of substrate bound MIA-protein and in the absence of the compound. In the absence of the compound, usually, the labeled MIA-protein would interact with the substrate bound MIA-protein, which, in turn, would contribute to a reduction in rotational mobility of the labeled MIA-protein, and therefore, the fluorescence polarization signal would increase upon such interaction. If, additionally, a compound is present that interferes with such interaction, no or little dimerization/aggregation occurs and no or little increase in fluorescence polarization signal would be detected. The smaller or even more negative P/P0 is, the stronger such interference with dimer formation and aggregation is, and the better such compound prevents or breaks up dimerization/aggregation of MIA protein. In an alternative embodiment, binding of the compound to MIA protein is determined by NMR, e.g., heteronuclear NMR, e.g., ^15N-^1H-HSQC-NMR.\nAll listed compounds that were screened for their ability to interfere with the MIA-MIA interaction (Table 1) in a heterogeneous transition metal-based fluorescence polarization (HTFP) assay previously developed (Riechers, A., et al., Heterogeneous transition metal-based fluorescence polarization (HTFP) assay for probing protein interactions. Biotechniques, 2009. 47(4): p. 837-44). […] The molecular structures of the compounds showing interference with the MIA-MIA interaction in the HTFP assay are shown in Table 1."}, "human fibroblasts [1]": {"tested_on": "human fibroblasts", "assay": "proliferation of human fibroblasts", "assay_type": "cell-based", "conditions": "7.8 μM, in vitro, FIG. 5A", "protocol": "(§1) In order to assess whether compounds of the present invention show any adverse effects on normal cells, human fibroblasts and kidney cells were treated with the compounds 1, 2, 3, 4, 5, and 6, respectively, in vitro at a concentration of 7.8 μM in analogy to previous studies (Schmidt, J., et al., Targeting melanoma metastasis and immunosuppression with a new mode of melanoma inhibitory activity (MIA) protein inhibition. PLoS One, 2012. 7(5): p. e37941; Riechers, A., et al., Heterogeneous transition metal-based fluorescence polarization (HTFP) assay for probing protein interactions. Biotechniques, 2009. 47(4): p. 837-44)."}, "kidney cells HEK-293 [2]": {"tested_on": "kidney cells HEK-293", "assay": "proliferation of kidney cells", "assay_type": "cell-based, human", "conditions": "7.8 μM, in vitro, HEK-293, FIG. 5C", "protocol": "as §1"}, "human fibroblasts [3]": {"tested_on": "human fibroblasts", "assay": "cellular attachment of human fibroblasts", "assay_type": "cell-based", "conditions": "7.8 μM, in vitro, FIG. 5B", "protocol": "as §1"}, "kidney cells HEK-293 [4]": {"tested_on": "kidney cells HEK-293", "assay": "cellular attachment of kidney cells", "assay_type": "cell-based, human", "conditions": "7.8 μM, in vitro, HEK-293, FIG. 5D", "protocol": "as §1"}}, "note": "Some of these results come from one statement about several compounds together.", "data": [{"smiles": "CS(=O)(=O)NCC#CCN1CCc2ccccc2C1", "note": "[Compound 2, N-[4-(1,2,3,4-tetrahydroisoquinolin-2-yl)but-2-yn-1-yl]methanesulfonamide]", "values": [{"measurement": "fluorescence polarization of Ru-(bpy)3 labelled MIA (interference with the MIA-MIA interaction)", "setting": "MIA-MIA interaction; FIG. 3, listed as compound 2", "value": "inhibition"}, {"measurement": "effect on proliferation of human fibroblasts", "setting": "human fibroblasts [1]; listed as compound 2", "value": "None of the tested compounds has an effect"}, {"measurement": "effect on proliferation of kidney cells", "setting": "kidney cells HEK-293 [2]; listed as compound 2", "value": "None of the tested compounds has an effect"}, {"measurement": "effect on cellular attachment of human fibroblasts", "setting": "human fibroblasts [3]; listed as compound 2", "value": "None of the tested compounds has an effect"}, {"measurement": "effect on cellular attachment of kidney cells", "setting": "kidney cells HEK-293 [4]; listed as compound 2", "value": "None of the tested compounds has an effect"}]}, {"smiles": "CC(=O)c1c(C)cn(CC(O)CN2CCNCC2)c1C", "note": "(stereo not drawn) [Compound 4, 1-{1-[2-hydroxy-3-(piperazin-1-yl)propyl]-2,4-dimethyl-1H-pyrrol-3-yl}ethan-1-one]", "values": [{"measurement": "fluorescence polarization of Ru-(bpy)3 labelled MIA (interference with the MIA-MIA interaction)", "setting": "MIA-MIA interaction; FIG. 3, listed as compound 4", "value": "inhibition"}, {"measurement": "effect on proliferation of human fibroblasts", "setting": "human fibroblasts [1]; listed as compound 4", "value": "None of the tested compounds has an effect"}, {"measurement": "effect on proliferation of kidney cells", "setting": "kidney cells HEK-293 [2]; listed as compound 4", "value": "None of the tested compounds has an effect"}, {"measurement": "effect on cellular attachment of human fibroblasts", "setting": "human fibroblasts [3]; listed as compound 4", "value": "None of the tested compounds has an effect"}, {"measurement": "effect on cellular attachment of kidney cells", "setting": "kidney cells HEK-293 [4]; listed as compound 4", "value": "None of the tested compounds has an effect"}]}, {"smiles": "CCCCCNC(=O)Cc1cc(=O)[nH]c(=O)[nH]1", "note": "[Compound 3, 2-(2,6-dioxo-1,2,3,6-tetrahydropyrimidin-4-yl)-N-Pentylacetamide]", "values": [{"measurement": "fluorescence polarization of Ru-(bpy)3 labelled MIA (interference with the MIA-MIA interaction)", "setting": "MIA-MIA interaction; FIG. 3, listed as compound 3", "value": "inhibition"}, {"measurement": "effect on proliferation of human fibroblasts", "setting": "human fibroblasts [1]; listed as compound 3", "value": "None of the tested compounds has an effect"}, {"measurement": "effect on proliferation of kidney cells", "setting": "kidney cells HEK-293 [2]; listed as compound 3", "value": "None of the tested compounds has an effect"}, {"measurement": "effect on cellular attachment of human fibroblasts", "setting": "human fibroblasts [3]; listed as compound 3", "value": "None of the tested compounds has an effect"}, {"measurement": "effect on cellular attachment of kidney cells", "setting": "kidney cells HEK-293 [4]; listed as compound 3", "value": "None of the tested compounds has an effect"}]}, {"smiles": "CCCCNC(=O)c1c(O)nc2c(C)cccn2c1=O", "note": "[Compound 6, N-butyl-2-hydroxy-9-methyl-4-oxo-4H-pyrido[1,2-a]pyrimidine-3-carboxamide]", "values": [{"measurement": "fluorescence polarization of Ru-(bpy)3 labelled MIA (interference with the MIA-MIA interaction)", "setting": "MIA-MIA interaction; FIG. 3, listed as compound 6", "value": "inhibition"}, {"measurement": "effect on proliferation of human fibroblasts", "setting": "human fibroblasts [1]; listed as compound 6", "value": "None of the tested compounds has an effect"}, {"measurement": "effect on proliferation of kidney cells", "setting": "kidney cells HEK-293 [2]; listed as compound 6", "value": "None of the tested compounds has an effect"}, {"measurement": "effect on cellular attachment of human fibroblasts", "setting": "human fibroblasts [3]; listed as compound 6", "value": "None of the tested compounds has an effect"}, {"measurement": "effect on cellular attachment of kidney cells", "setting": "kidney cells HEK-293 [4]; listed as compound 6", "value": "None of the tested compounds has an effect"}]}, {"smiles": "CCC(C)N1CC(=O)C(c2nc3ccccc3[nH]2)=C1N", "note": "(stereo not drawn) [Compound 1, 5-amino-4-(1H-1,3-benzodiazol-2-yl)-1-(butan-2-yl)-2,3-dihydro-1H-pyrrol-3-one]", "values": [{"measurement": "fluorescence polarization of Ru-(bpy)3 labelled MIA (interference with the MIA-MIA interaction)", "setting": "MIA-MIA interaction; FIG. 3, listed as compound 1", "value": "inhibition"}, {"measurement": "effect on proliferation of human fibroblasts", "setting": "human fibroblasts [1]; listed as compound 1", "value": "None of the tested compounds has an effect"}, {"measurement": "effect on proliferation of kidney cells", "setting": "kidney cells HEK-293 [2]; listed as compound 1", "value": "None of the tested compounds has an effect"}, {"measurement": "effect on cellular attachment of human fibroblasts", "setting": "human fibroblasts [3]; listed as compound 1", "value": "None of the tested compounds has an effect"}, {"measurement": "effect on cellular attachment of kidney cells", "setting": "kidney cells HEK-293 [4]; listed as compound 1", "value": "None of the tested compounds has an effect"}]}, {"smiles": "COc1ccc2[nH]c(CN3CCNCC3)nc2c1", "note": "[Compound 5, 5-methoxy-2-(piperazin-1-ylmethyl)-1H-1,3-Benzodiazole]", "values": [{"measurement": "fluorescence polarization of Ru-(bpy)3 labelled MIA (interference with the MIA-MIA interaction)", "setting": "MIA-MIA interaction; FIG. 3, listed as compound 5", "value": "inhibition"}, {"measurement": "effect on proliferation of human fibroblasts", "setting": "human fibroblasts [1]; listed as compound 5", "value": "None of the tested compounds has an effect"}, {"measurement": "effect on proliferation of kidney cells", "setting": "kidney cells HEK-293 [2]; listed as compound 5", "value": "None of the tested compounds has an effect"}, {"measurement": "effect on cellular attachment of human fibroblasts", "setting": "human fibroblasts [3]; listed as compound 5", "value": "None of the tested compounds has an effect"}, {"measurement": "effect on cellular attachment of kidney cells", "setting": "kidney cells HEK-293 [4]; listed as compound 5", "value": "None of the tested compounds has an effect"}]}]}
